This assay has as its system BDF1 mice, intracerebral L1210 leukemia, survival T/C. Nature of the assay: NCI In Vivo Anticancer Drug Screen. Data for tumor model L1210 Leukemia (intracerebral) in B6D2F1 (BDF1) mice. The following applies: higher T/C = longer survival. Summed up: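 Survival measured in treated and vehicle-control tumour-bearing mice; value = T/C.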
[1] abbreviates: T/C endpoint: mean survival time, dose: 207.0 mg/kg/injection, schedule: Q01DX001 (ip), vehicle: carboxymethylcellulose (CMC).

The list shows only some results of the screen, not a fair sample: it is rich in T/C values a quarter to a half above the control, in often repeated tests (any T/C) and in doses without a T/C. Other doses and runs of a compound stand elsewhere. T/C is the treated group as % of the vehicle group. Some entries give survivors of the animals treated and no T/C: the source files T/C as zero there, which appears to mark a toxic dose or a test without result, not a measured value. Some survivor counts are full or nearly so, which does not show that the dose was tolerated: survival well below the control is almost never listed, so the zero probably covers shortened survival too. Counts of survivors are from the toxicity check (mostly the fifth day) where no day follows; animals may have died later. Schedule codes are those of the source, read here as Q, the interval in days (D) or hours (H), X, the number of doses. Where survival is the endpoint, the PubChem record calls one and a half times the control and up active, and a quarter to a half above the control has no call in these data; cut-offs in other NCI protocols can differ. Marks such as (2×) give the number of equal values in this list. Some entries were tested several times; the values are given in rising order.

This note sets out measurements from PubChem BioAssay AID252 (DTP/NCI, 2004).

With `O=NN(CCCl)C(=O)NC1CCC(C(=O)O)CC1` (stereo not drawn), the T/C by setting is: (T/C endpoint: mean survival time, dose: 12.0 mg/kg/injection, schedule: Q01DX001 (ip), vehicle: saline with Tween-80) 128 % of control (2×); (T/C endpoint: mean survival time, dose: 18.0 mg/kg/injection, schedule: Q01DX001 (ip), vehicle: saline with Tween-80) 126 and 134 % of control.

In the case of `OC(C1CO1)C(O)C1CO1` (stereo not drawn), the survivor count is given as 2 of 10 (T/C endpoint: mean survival time, dose: 0.1 mg/kg/injection, schedule: Q04DX003 (ip), vehicle: saline); 4 of 10 (T/C endpoint: mean survival time, dose: 0.12 mg/kg/injection, schedule: Q03HX024 (ip), vehicle: saline); 3 of 10 (T/C endpoint: mean survival time, dose: 0.2 mg/kg/injection, schedule: Q01DX001 (ip), vehicle: saline); 6 of 10 (T/C endpoint: mean survival time, dose: 0.2 mg/kg/injection, schedule: Q04DX003 (ip), vehicle: saline); 6 of 10 (T/C endpoint: mean survival time, dose: 0.25 mg/kg/injection, schedule: Q01DX009 (ip), vehicle: saline); 7 of 10 (T/C endpoint: mean survival time, dose: 0.25 mg/kg/injection, schedule: Q03HX008 (ip), vehicle: saline). In addition, the survivor count (T/C endpoint: mean survival time, dose: 0.25 mg/kg/injection, schedule: Q03HX024 (ip), vehicle: saline) was 6 of 10; the survivor count (T/C endpoint: mean survival time, dose: 0.4 mg/kg/injection, schedule: Q01DX001 (ip), vehicle: saline) is listed as 4 of 10; the survivor count (T/C endpoint: mean survival time, dose: 0.4 mg/kg/injection, schedule: Q04DX003 (ip), vehicle: saline) was 2 of 10; the survivor count (T/C endpoint: mean survival time, dose: 0.5 mg/kg/injection, schedule: Q01DX009 (ip), vehicle: saline) is given as 7 of 10; the survivor count (T/C endpoint: mean survival time, dose: 0.5 mg/kg/injection, schedule: Q03HX008 (ip), vehicle: saline) is reported as 9 of 10; the survivor count (T/C endpoint: mean survival time, dose: 0.5 mg/kg/injection, schedule: Q03HX024 (ip), vehicle: saline) was 5 of 10. Further, the survivor count reads like this: (T/C endpoint: mean survival time, dose: 0.8 mg/kg/injection, schedule: Q01DX001 (ip), vehicle: saline) 5 of 10; (T/C endpoint: mean survival time, dose: 0.8 mg/kg/injection, schedule: Q04DX003 (ip), vehicle: saline) 4 of 10; (T/C endpoint: mean survival time, dose: 1.0 mg/kg/injection, schedule: Q01DX009 (ip), vehicle: saline) 9 of 10; (T/C endpoint: mean survival time, dose: 1.0 mg/kg/injection, schedule: Q03HX008 (ip), vehicle: saline) 10 of 10; (T/C endpoint: mean survival time, dose: 1.0 mg/kg/injection, schedule: Q03HX024 (ip), vehicle: saline) 10 of 10; (T/C endpoint: mean survival time, dose: 1.6 mg/kg/injection, schedule: Q01DX001 (ip), vehicle: saline) 4 of 10. Further, the survivor count was 6 of 10 (T/C endpoint: mean survival time, dose: 1.6 mg/kg/injection, schedule: Q04DX003 (ip), vehicle: saline); 9 of 10 (T/C endpoint: mean survival time, dose: 2.0 mg/kg/injection, schedule: Q03HX008 (ip), vehicle: saline); 6 of 10 (T/C endpoint: mean survival time, dose: 3.2 mg/kg/injection, schedule: Q01DX001 (ip), vehicle: saline); 9 of 10 (T/C endpoint: mean survival time, dose: 4.0 mg/kg/injection, schedule: Q03HX008 (ip), vehicle: saline); 8 of 8 (T/C endpoint: mean survival time, dose: 5.0 mg/kg/injection, schedule: Q01DX009 (ip), vehicle: water); 6 of 6 (T/C endpoint: mean survival time, dose: 8.0 mg/kg/injection, schedule: Q01DX009 (ip), vehicle: saline). Moreover, the survivor count (T/C endpoint: mean survival time, dose: 8.4 mg/kg/injection, schedule: Q01DX009 (ip), vehicle: water) is reported as 5 of 8 and the survivor count (T/C endpoint: mean survival time, dose: 14.0 mg/kg/injection, schedule: Q01DX009 (ip), vehicle: water) is recorded as 2 of 8. Further, the T/C by setting is: (T/C endpoint: mean survival time, dose: 2.0 mg/kg/injection, schedule: Q01DX009 (ip), vehicle: saline) 129 and 137 % of control; (T/C endpoint: mean survival time, dose: 3.0 mg/kg/injection, schedule: Q01DX009 (ip), vehicle: water) 133 % of control; (T/C endpoint: mean survival time, dose: 4.0 mg/kg/injection, schedule: Q01DX009 (ip), vehicle: saline) 139 % of control; (T/C endpoint: mean survival time, dose: 5.0 mg/kg/injection, schedule: Q01DX001 (ip), vehicle: water, evaluated on day 7) 132 % of control; (T/C endpoint: mean survival time, dose: 5.0 mg/kg/injection, schedule: Q01DX001 (ip), vehicle: water, evaluated on day 20) 132 % of control; (T/C endpoint: mean survival time, dose: 10.0 mg/kg/injection, schedule: Q01DX001 (ip), vehicle: water, evaluated on day 7) 143 % of control. The T/C was 143 % of control (T/C endpoint: mean survival time, dose: 10.0 mg/kg/injection, schedule: Q01DX001 (ip), vehicle: water, evaluated on day 20); 131 % of control (T/C endpoint: median survival time, dose: 1.0 mg/kg/injection, schedule: Q01DX001 (oral), vehicle: saline); 130 % of control (T/C endpoint: median survival time, dose: 2.0 mg/kg/injection, schedule: Q01DX001 (oral), vehicle: saline).

Take `O=NN(CCCl)C(=O)N[C@H]1CCCC[C@H]1Cl`: the T/C runs as follows: (T/C endpoint: mean survival time, dose: 25.0 mg/kg/injection, schedule: Q01DX001 (ip), vehicle: carboxymethylcellulose (CMC)) 127 and 136 % of control; (T/C endpoint: mean survival time, dose: 36.0 mg/kg/injection, schedule: Q01DX001 (ip), vehicle: carboxymethylcellulose (CMC)) 131 % of control; (T/C endpoint: mean survival time, dose: 40.0 mg/kg/injection, schedule: Q01DX001 (ip), vehicle: carboxymethylcellulose (CMC)) 127 and 133 % of control; under setting [1], 139 % of control. Moreover, the survivor count under setting [1] is on record as 10 of 10.

As to `CC(Cl)CN(N=O)C(=O)NC1CCCCC1` (stereo not drawn), the T/C by setting is: (T/C endpoint: mean survival time, dose: 375.0 mg/kg/injection, schedule: Q01DX001 (ip), vehicle: other) 134 % of control; (T/C endpoint: mean survival time, dose: 500.0 mg/kg/injection, schedule: Q01DX001 (ip), vehicle: other) 127 % of control; (T/C endpoint: mean survival time, dose: 750.0 mg/kg/injection, schedule: Q01DX001 (ip), vehicle: other) 130 % of control. The survivor count (T/C endpoint: mean survival time, dose: 1000.0 mg/kg/injection, schedule: Q01DX001 (ip), vehicle: other) is given as 6 of 10.

As for `C[n+]1c2ccccc2c(Nc2ccc(NS(=O)(=O)CCCCN=C(N)N)cc2)c2ccc(N)cc21`, the survivor count (T/C endpoint: mean survival time, dose: 24.0 mg/kg/injection, schedule: Q01DX009 (ip), vehicle: water) is given as 1 of 10.

As for `C[C@H]1CN1C1=CC(=O)C(N2C[C@@H]2C)=CC1=O`, the survivor count (T/C endpoint: mean survival time, dose: 16.0 mg/kg/injection, schedule: Q01DX009 (ip), vehicle: saline) is 6 of 6; the survivor count (T/C endpoint: mean survival time, dose: 32.0 mg/kg/injection, schedule: Q01DX009 (ip), vehicle: saline) is on record as 0 of 6; the survivor count (T/C endpoint: mean survival time, dose: 64.0 mg/kg/injection, schedule: Q01DX009 (ip), vehicle: saline) is recorded as 0 of 6.

In the case of `CS(=O)(=O)Nc1ccc(Nc2c3ccccc3nc3ccccc23)cc1`, the survivor count (T/C endpoint: mean survival time, dose: 80.0 mg/kg/injection, schedule: Q01DX009 (ip), vehicle: saline) is 10 of 10.

Regarding `O=NN(CCCl)C(=O)N[C@@H]1CCCC[C@H]1NC(=O)N(CCCl)N=O`, the T/C runs as follows: (T/C endpoint: mean survival time, dose: 67.0 mg/kg/injection, schedule: Q01DX001 (ip), vehicle: carboxymethylcellulose (CMC)) 129 % of control; (T/C endpoint: mean survival time, dose: 72.0 mg/kg/injection, schedule: Q01DX001 (ip), vehicle: carboxymethylcellulose (CMC)) 133 % of control; (T/C endpoint: mean survival time, dose: 100.0 mg/kg/injection, schedule: Q01DX001 (ip), vehicle: carboxymethylcellulose (CMC)) 138 % of control; (T/C endpoint: mean survival time, dose: 108.0 mg/kg/injection, schedule: Q01DX001 (ip), vehicle: carboxymethylcellulose (CMC)) 133 and 134 % of control; (T/C endpoint: mean survival time, dose: 150.0 mg/kg/injection, schedule: Q01DX001 (ip), vehicle: carboxymethylcellulose (CMC)) 146 % of control; (T/C endpoint: mean survival time, dose: 160.0 mg/kg/injection, schedule: Q01DX001 (ip), vehicle: carboxymethylcellulose (CMC)) 129 and 135 % of control. The T/C was 138, 147, 148 % of control (T/C endpoint: mean survival time, dose: 225.0 mg/kg/injection, schedule: Q01DX001 (ip), vehicle: carboxymethylcellulose (CMC)); 141 % of control (T/C endpoint: mean survival time, dose: 240.0 mg/kg/injection, schedule: Q01DX001 (ip), vehicle: carboxymethylcellulose (CMC)); 140 and 148 % of control (T/C endpoint: mean survival time, dose: 360.0 mg/kg/injection, schedule: Q01DX001 (ip), vehicle: carboxymethylcellulose (CMC)). Further, the survivor count was 6 of 6 (T/C endpoint: mean survival time, dose: 337.0 mg/kg/injection, schedule: Q01DX001 (ip), vehicle: carboxymethylcellulose (CMC)); 6 of 6 (T/C endpoint: mean survival time, dose: 536.0 mg/kg/injection, schedule: Q01DX001 (ip), vehicle: carboxymethylcellulose (CMC)); 1 of 6 (T/C endpoint: mean survival time, dose: 804.0 mg/kg/injection, schedule: Q01DX001 (ip), vehicle: carboxymethylcellulose (CMC)).
